Consider one molecule from paper PMC9004082.

No constants are given. Whether binding was seen depends on the method and setting. For some of these results: In cells and extracts the contact can be indirect. Some results given as binding are weak or reduced against the parent protein; the word gives no strength. Tags and fused reporters may be left off the sequences shown.

For assay [1], the target named is TDP-43 C-terminal fragment (aa 262-414) fused to mClover3 or mRuby3 (TDP-43 biosensor constructs). Kind of assay: condition: only cells without TDP-43 PFF (50 nM TDP-43 monomer or empty Lipofectamine); FRET or BRET; same TDP-43 biosensor cells without seeds: empty Lipofectamine or 50 nM TDP-43 monomer, 48 h. A general note: In BRET a luciferase serves as donor, and the signal depends on an acceptor being close.

Assay [2] has the same target. Description: condition: only cells treated with TDP-43 monomer instead of PFF; detergent fractionation by ultracentrifugation with immunoblot; lysates of TDP-43 biosensor cells treated with TDP-43 monomer for 48 h; RIPA soluble and insoluble fractions; anti-GFP blot of the tagged CTF. A general note: Immunoblotting shows a protein as a band on a membrane.
Assay [3] shares this target. Description: detergent fractionation by ultracentrifugation with immunoblot; lysates of TDP-43 biosensor cells treated with TDP-43 PFF for 48 h; RIPA soluble and insoluble fractions; anti-GFP blot of the tagged CTF.
The target is the same in assay [4]. Description: FRET or BRET; TDP-43 CTF-mClover3 and TDP-43 CTF-mRuby3 co-expressed in HEK293T biosensor cells; 50 nM TDP-43 PFF applied with Lipofectamine for 48 h; FRET by confocal microscopy and flow cytometry; also run with NMS-873 or VCP mutant expression.

B1: TDP-43 C-terminal fragment (aa 262-414) fused to mClover3 or mRuby3 (TDP-43 biosensor constructs) (domain or fragment)
chain: MAKHNSNRQLERSGRFGGNPGGFGNQGGFGNSRGGGAGLGNNQGSNMGGGMNFGAFSINPAMMAAAQAALQSSWGMMGMLASQQNQSGPSGNNQNQGNMQREPNQAFGSGNNSYSGSNSGAAIGWGSASNAGSGSGFNGGFGSSMDSKSSGWGMGSAGSAAGSGEF
B1: the binding result in assay [1] is on record as “no binding”; in assay [2], “no binding”; in assay [3], “binds”; in assay [4] it was “binds”.
